{"source": "PubChem BioAssay AID1508597 | Cure First, 2020", "screen": "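Knock-downs altering ovarian cancer cell survival with or without PARP inhibitor rucaparib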 (primary screen)", "cell system": "human ovarian carcinoma lines grown from tumours: OCI-P5x (papillary serous) and OCI-C5x (clear cell)", "reagents": "siRNA pool against human genes, 1.25 pmol siRNA per well", "timing": "72 h or 96 h, depending on the cell culture", "conditions": "rucaparib 20 µM (about IC30) or vehicle, present until read-out", "rucaparib or vehicle": "Vehicle", "cell line": "OCI-P5x (serous)", "detection": "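Luminescent ATP-based viability assay read 72 or 96 h after transfection, depending on culture, given as normalised percent viability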", "reading the numbers": "viability, normalised: higher = more viable cells remaining", "rule for the call": "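Active when normalised viability falls below 80 percent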", "calls": "active = viability under 80%; inactive = viability 80% or more", "note": "This is a random part of the about 2,100 reagents, in one setting of the screen. 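Calls flag viability under 80% in either arm, not effects specific to rucaparib; the reference for percent is not stated.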 Some reagents were tested in more than one well and are listed for each. The record does not give: the 100% reference."}
{"gene knocked down": "SMARCD1", "technical replicate": "1", "viability, normalised (%)": 57.7, "activity call": "active"}
{"gene knocked down": "SMARCD1", "technical replicate": "2", "viability, normalised (%)": 71.4, "activity call": "active"}
{"gene knocked down": "SMARCD1", "technical replicate": "3", "viability, normalised (%)": 60.1, "activity call": "active"}
{"gene knocked down": "SNCA", "technical replicate": "1", "viability, normalised (%)": 55.8, "activity call": "active"}
{"gene knocked down": "SNCA", "technical replicate": "2", "viability, normalised (%)": 52.1, "activity call": "active"}
{"gene knocked down": "SNCA", "technical replicate": "3", "viability, normalised (%)": 69.7, "activity call": "active"}
{"gene knocked down": "GRK2", "technical replicate": "1", "viability, normalised (%)": 85.5, "activity call": "inactive"}
{"gene knocked down": "GRK2", "technical replicate": "2", "viability, normalised (%)": 63.9, "activity call": "active"}
{"gene knocked down": "GRK2", "technical replicate": "3", "viability, normalised (%)": 65.6, "activity call": "active"}
{"gene knocked down": "COPS3", "technical replicate": "1", "viability, normalised (%)": 60.6, "activity call": "active"}
{"gene knocked down": "COPS3", "technical replicate": "2", "viability, normalised (%)": 73.7, "activity call": "active"}
{"gene knocked down": "COPS3", "technical replicate": "3", "viability, normalised (%)": 67.3, "activity call": "active"}
{"gene knocked down": "EHMT1", "technical replicate": "1", "viability, normalised (%)": 66.6, "activity call": "active"}
{"gene knocked down": "EHMT1", "technical replicate": "2", "viability, normalised (%)": 77.1, "activity call": "active"}
{"gene knocked down": "EHMT1", "technical replicate": "3", "viability, normalised (%)": 90.3, "activity call": "inactive"}
{"gene knocked down": "YY1", "technical replicate": "1", "viability, normalised (%)": 68.8, "activity call": "active"}
{"gene knocked down": "YY1", "technical replicate": "1", "viability, normalised (%)": 63.9, "activity call": "active"}
{"gene knocked down": "YY1", "technical replicate": "2", "viability, normalised (%)": 60.8, "activity call": "active"}
{"gene knocked down": "YY1", "technical replicate": "2", "viability, normalised (%)": 80.5, "activity call": "inactive"}
{"gene knocked down": "YY1", "technical replicate": "3", "viability, normalised (%)": 65.5, "activity call": "active"}
{"gene knocked down": "YY1", "technical replicate": "3", "viability, normalised (%)": 57.1, "activity call": "active"}

In a second layout: entries from further up
{"gene knocked down":"GRK2","technical replicate":"3","viability, normalised (%)":65.6,"activity call":"active"}
{"gene knocked down":"COPS3","technical replicate":"1","viability, normalised (%)":60.6,"activity call":"active"}
